Laboratory results reported in the supplement of paper PMC10032668.
± gives the standard deviation of the averaged measurements. This is one part of the list. Only hits are listed; about a third recur on repeated control peptides.

Chains of the proteins cited; added tags and fusions are not shown.
CALR, P27797, UniProt P27797, whole entry: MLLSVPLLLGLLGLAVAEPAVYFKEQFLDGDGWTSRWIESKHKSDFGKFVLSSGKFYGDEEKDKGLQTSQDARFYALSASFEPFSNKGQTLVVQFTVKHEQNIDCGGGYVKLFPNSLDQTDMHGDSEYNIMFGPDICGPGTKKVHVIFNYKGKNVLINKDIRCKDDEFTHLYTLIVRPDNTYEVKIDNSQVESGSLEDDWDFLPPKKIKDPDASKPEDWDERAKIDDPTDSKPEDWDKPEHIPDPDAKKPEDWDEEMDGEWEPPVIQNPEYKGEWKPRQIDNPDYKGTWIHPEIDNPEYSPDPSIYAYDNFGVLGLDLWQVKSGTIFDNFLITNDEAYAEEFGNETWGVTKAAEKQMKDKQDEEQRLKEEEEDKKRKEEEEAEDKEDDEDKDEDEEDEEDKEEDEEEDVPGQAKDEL
TUBB8, Q3ZCM7, UniProt Q3ZCM7, whole entry: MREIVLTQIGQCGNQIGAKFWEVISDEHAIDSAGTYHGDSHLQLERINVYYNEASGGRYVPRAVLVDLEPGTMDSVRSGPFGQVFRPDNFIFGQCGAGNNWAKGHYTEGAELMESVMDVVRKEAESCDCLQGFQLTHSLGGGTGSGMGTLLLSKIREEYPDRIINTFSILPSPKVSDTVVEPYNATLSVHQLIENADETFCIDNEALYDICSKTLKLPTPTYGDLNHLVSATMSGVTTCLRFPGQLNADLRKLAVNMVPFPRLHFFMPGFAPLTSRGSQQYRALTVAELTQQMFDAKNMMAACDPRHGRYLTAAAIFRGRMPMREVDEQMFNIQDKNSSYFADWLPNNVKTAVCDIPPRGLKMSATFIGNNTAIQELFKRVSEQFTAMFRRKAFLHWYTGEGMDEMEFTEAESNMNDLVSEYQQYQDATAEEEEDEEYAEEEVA

How the values were obtained:
Test in all cases: PRISMA enrichment of interactor (LFQ) in peptide spot vs all other peptide spots (log2 fold change); higher = stronger / more specific binding of the interactor to the peptide
ANP32A, P39687 = target: ANP32A, P39687
Procedure: (§1)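 PRISMA: 15-aa overlapping tiles (offset 8 aa) of 60 microproteins, plus SOS1/GLUT1 control peptides, were spot-synthesized on cellulose membranes in triplicate. Membranes were incubated with benzonase-treated HEK293T lysate, and bound proteins were identified by LC-MS/MS with LFQ. Enrichment is the log2 fold change of each protein in one spot versus all other spots. Only interactors passing the significance cutoff are listed.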

ANP32B, Q92688 = target: ANP32B, Q92688
Procedure: as §1

CALR, P27797 = target: CALR, P27797
Procedure: as §1

HMGCL, P35914 = target: HMGCL, P35914
Procedure: as §1

IDH1, O75874 = target: IDH1, O75874
Procedure: as §1

KIFC1, Q9BW19 = target: KIFC1, Q9BW19
Procedure: as §1

MED11, Q9P086 = target: MED11, Q9P086
Procedure: as §1

RPLP1, P05386 = target: RPLP1, P05386
Procedure: as §1

RPS29, P62273 = target: RPS29, P62273
Procedure: as §1

TUBB8, Q3ZCM7 = target: TUBB8, Q3ZCM7
Procedure: as §1

BRD2, P25440 = target: BRD2, P25440
Procedure: as §1

C1QBP, Q07021 = target: C1QBP, Q07021
Procedure: as §1

CCT8, P50990 = target: CCT8, P50990
Procedure: as §1

GRB2, P62993 = target: GRB2, P62993
Procedure: as §1

MRPL9, Q9BYD2 = target: MRPL9, Q9BYD2
Procedure: as §1

PPHLN1, Q8NEY8 = target: PPHLN1, Q8NEY8
Procedure: as §1

RAB8A, P61006 = target: RAB8A, P61006
Procedure: as §1

SRSF5, Q13243 = target: SRSF5, Q13243
Procedure: as §1

TMEM214, Q6NUQ4 = target: TMEM214, Q6NUQ4
Procedure: as §1

TRMT5, Q32P41 = target: TRMT5, Q32P41
Procedure: as §1

YY1, P25490 = target: YY1, P25490
Procedure: as §1

ANP32E, Q9BTT0 = target: ANP32E, Q9BTT0
Procedure: as §1

ATP6V0D1, P61421 = target: ATP6V0D1, P61421
Procedure: as §1

CUL4A, Q13619 = target: CUL4A, Q13619
Procedure: as §1

CYB5B, O43169 = target: CYB5B, O43169
Procedure: as §1

DDX20, Q9UHI6 = target: DDX20, Q9UHI6
Procedure: as §1

HNRNPAB, Q99729 = target: HNRNPAB, Q99729
Procedure: as §1

MRPS35, P82673 = target: MRPS35, P82673
Procedure: as §1

ODF2, Q5BJF6 = target: ODF2, Q5BJF6
Procedure: as §1

PPIG, Q13427 = target: PPIG, Q13427
Procedure: as §1

SET, Q01105 = target: SET, Q01105
Procedure: as §1

SPTAN1, Q13813 = target: SPTAN1, Q13813
Procedure: as §1

YWHAG, P61981 = target: YWHAG, P61981
Procedure: as §1

[1] = substrate: BCCIP, Q9P287
Procedure: as §1

CTNNBL1, Q8WYA6 = target: CTNNBL1, Q8WYA6
Procedure: as §1

LLPH, Q9BRT6 = target: LLPH, Q9BRT6
Procedure: as §1

MTOR, P42345 = target: MTOR, P42345
Procedure: as §1

NAP1L1, P55209 = target: NAP1L1, P55209
Procedure: as §1

PTGES3, Q15185 = target: PTGES3, Q15185
Procedure: as §1

CLN6, Q9NWW5 = target: CLN6, Q9NWW5
Procedure: as §1

HIST1H1E, P10412 = target: HIST1H1E, P10412
Procedure: as §1

SBDS, Q9Y3A5 = target: SBDS, Q9Y3A5
Procedure: as §1

SRSF1, Q07955 = target: SRSF1, Q07955
Procedure: as §1

SRSF2, Q01130 = target: SRSF2, Q01130
Procedure: as §1

SRSF6, Q13247 = target: SRSF6, Q13247
Procedure: as §1

SRSF7, Q16629 = target: SRSF7, Q16629
Procedure: as §1

ATG3, Q9NT62 = target: ATG3, Q9NT62
Procedure: as §1

BHMT, Q93088 = target: BHMT, Q93088
Procedure: as §1

DNM1L, O00429 = target: DNM1L, O00429
Procedure: as §1

EIF1AD, Q8N9N8 = target: EIF1AD, Q8N9N8
Procedure: as §1

HNRNPC, P07910 = target: HNRNPC, P07910
Procedure: as §1

NCL, P19338 = target: NCL, P19338
Procedure: as §1

PELP1, Q8IZL8 = target: PELP1, Q8IZL8
Procedure: as §1

PTMA, P06454 = target: PTMA, P06454
Procedure: as §1

PTMS, P20962 = target: PTMS, P20962
Procedure: as §1

PUS1, Q9Y606 = target: PUS1, Q9Y606
Procedure: as §1

RNASEH1, O60930 = target: RNASEH1, O60930
Procedure: as §1

SMIM12, Q96EX1 = target: SMIM12, Q96EX1
Procedure: as §1

SUGT1, Q9Y2Z0 = target: SUGT1, Q9Y2Z0
Procedure: as §1

SUPT4H1, P63272 = target: SUPT4H1, P63272
Procedure: as §1

SYMPK, Q92797 = target: SYMPK, Q92797
Procedure: as §1

YIF1B, Q5BJH7 = target: YIF1B, Q5BJH7
Procedure: as §1

ZNF771, Q7L3S4 = target: ZNF771, Q7L3S4
Procedure: as §1

MMS19, Q96T76 = target: MMS19, Q96T76
Procedure: as §1

NUCKS1, Q9H1E3 = target: NUCKS1, Q9H1E3
Procedure: as §1

TRRAP, Q9Y4A5 = target: TRRAP, Q9Y4A5
Procedure: as §1

Binder: TALPKRQRSQDIGRS [SNHG8]
- PRISMA enrichment of interactor (log2) (ANP32A, P39687): 6.31
- PRISMA enrichment of interactor (log2) (ANP32B, Q92688): 6.83
- PRISMA enrichment of interactor (log2) (CALR, P27797): 5.44
- PRISMA enrichment of interactor (log2) (HMGCL, P35914): 4.07
- PRISMA enrichment of interactor (log2) (IDH1, O75874): 4.5
- PRISMA enrichment of interactor (log2) (KIFC1, Q9BW19): 5.9
- PRISMA enrichment of interactor (log2) (MED11, Q9P086): 7.81
- PRISMA enrichment of interactor (log2) (RPLP1, P05386): 6.36
- PRISMA enrichment of interactor (log2) (RPS29, P62273): 4.66
- PRISMA enrichment of interactor (log2) (TUBB8, Q3ZCM7): 4.42

Binder: MKAENRCRRRPPPAL [RNF10]
- PRISMA enrichment of interactor (log2) (ANP32B, Q92688): 5.98
- PRISMA enrichment of interactor (log2) (BRD2, P25440): 4.36
- PRISMA enrichment of interactor (log2) (C1QBP, Q07021): 5.79
- PRISMA enrichment of interactor (log2) (CCT8, P50990): 4.75
- PRISMA enrichment of interactor (log2) (GRB2, P62993): 4.72
- PRISMA enrichment of interactor (log2) (MRPL9, Q9BYD2): 6.77
- PRISMA enrichment of interactor (log2) (PPHLN1, Q8NEY8): 5.76
- PRISMA enrichment of interactor (log2) (RAB8A, P61006): 6.65
- PRISMA enrichment of interactor (log2) (SRSF5, Q13243): 4.88
- PRISMA enrichment of interactor (log2) (TMEM214, Q6NUQ4): 6.43
- PRISMA enrichment of interactor (log2) (TRMT5, Q32P41): 5.54
- PRISMA enrichment of interactor (log2) (YY1, P25490): 5.76

Binder: KKKGNLMETCVYQME
- PRISMA enrichment of interactor (log2) (ANP32A, P39687): 7.99
- PRISMA enrichment of interactor (log2) (ANP32B, Q92688): 6.25
- PRISMA enrichment of interactor (log2) (ANP32E, Q9BTT0): 5.33
- PRISMA enrichment of interactor (log2) (ATP6V0D1, P61421): 6.29
- PRISMA enrichment of interactor (log2) (CUL4A, Q13619): 3.78
- PRISMA enrichment of interactor (log2) (CYB5B, O43169): 5.12
- PRISMA enrichment of interactor (log2) (DDX20, Q9UHI6): 4.75
- PRISMA enrichment of interactor (log2) (HNRNPAB, Q99729): 4.83
- PRISMA enrichment of interactor (log2) (MRPS35, P82673): 5.99
- PRISMA enrichment of interactor (log2) (ODF2, Q5BJF6): 6.24
- PRISMA enrichment of interactor (log2) (PPIG, Q13427): 4.9
- PRISMA enrichment of interactor (log2) (SET, Q01105): 6.23
- PRISMA enrichment of interactor (log2) (SPTAN1, Q13813): 6.26
- PRISMA enrichment of interactor (log2) (YWHAG, P61981): 6.35

Binder: ARETRTKNKRAVRCR [CTC-471J1.11]
- PRISMA enrichment of interactor (log2) (ANP32A, P39687): 6.91
- PRISMA enrichment of interactor (log2) [1]: 4.12
- PRISMA enrichment of interactor (log2) (BRD2, P25440): 4.28
- PRISMA enrichment of interactor (log2) (C1QBP, Q07021): 6.24
- PRISMA enrichment of interactor (log2) (CTNNBL1, Q8WYA6): 4.33
- PRISMA enrichment of interactor (log2) (LLPH, Q9BRT6): 4.2
- PRISMA enrichment of interactor (log2) (MTOR, P42345): 6.79
- PRISMA enrichment of interactor (log2) (NAP1L1, P55209): 6.29 ± 0.77
- PRISMA enrichment of interactor (log2) (PTGES3, Q15185): 6.48

Binder: ARGGRDEEGRRRAAS [PVT1]
- PRISMA enrichment of interactor (log2) (ANP32A, P39687): 6.36
- PRISMA enrichment of interactor (log2) (C1QBP, Q07021): 7.74
- PRISMA enrichment of interactor (log2) (CLN6, Q9NWW5): 4.33
- PRISMA enrichment of interactor (log2) (HIST1H1E, P10412): 7.32
- PRISMA enrichment of interactor (log2) (RAB8A, P61006): 5.96
- PRISMA enrichment of interactor (log2) (SBDS, Q9Y3A5): 5.51
- PRISMA enrichment of interactor (log2) (SET, Q01105): 6.31
- PRISMA enrichment of interactor (log2) (SRSF1, Q07955): 6.64
- PRISMA enrichment of interactor (log2) (SRSF2, Q01130): 6.79
- PRISMA enrichment of interactor (log2) (SRSF5, Q13243): 5.76
- PRISMA enrichment of interactor (log2) (SRSF6, Q13247): 5.89
- PRISMA enrichment of interactor (log2) (SRSF7, Q16629): 7.16

Binder: SQAGKPLTPKAKMPK [NAV2-AS2_2]
- PRISMA enrichment of interactor (log2) (ANP32A, P39687): 8.25
- PRISMA enrichment of interactor (log2) (ATG3, Q9NT62): 4.65
- PRISMA enrichment of interactor (log2) (BHMT, Q93088): 7.68
- PRISMA enrichment of interactor (log2) (DNM1L, O00429): 6.43
- PRISMA enrichment of interactor (log2) (EIF1AD, Q8N9N8): 4.12
- PRISMA enrichment of interactor (log2) (HNRNPC, P07910): 5.14
- PRISMA enrichment of interactor (log2) (NCL, P19338): 4.96
- PRISMA enrichment of interactor (log2) (PELP1, Q8IZL8): 5.44
- PRISMA enrichment of interactor (log2) (PTMA, P06454): 8.13
- PRISMA enrichment of interactor (log2) (PTMS, P20962): 5.53
- PRISMA enrichment of interactor (log2) (PUS1, Q9Y606): 5.59
- PRISMA enrichment of interactor (log2) (RNASEH1, O60930): 4.09
- PRISMA enrichment of interactor (log2) (SMIM12, Q96EX1): 3.61
- PRISMA enrichment of interactor (log2) (SUGT1, Q9Y2Z0): 5.17
- PRISMA enrichment of interactor (log2) (SUPT4H1, P63272): 5.82
- PRISMA enrichment of interactor (log2) (SYMPK, Q92797): 4.31
- PRISMA enrichment of interactor (log2) (YIF1B, Q5BJH7): 4.41
- PRISMA enrichment of interactor (log2) (ZNF771, Q7L3S4): 4.46

Binder: LKKVLPRKKKGNLME
- PRISMA enrichment of interactor (log2) (ANP32A, P39687): 6.38
- PRISMA enrichment of interactor (log2) (PTMA, P06454): 5.45

Binder: RPPHRRTSKKCSSIG [IFRD1]
- PRISMA enrichment of interactor (log2) (ANP32A, P39687): 5.95
- PRISMA enrichment of interactor (log2) (ANP32B, Q92688): 6.18
- PRISMA enrichment of interactor (log2) (EIF1AD, Q8N9N8): 4.41
- PRISMA enrichment of interactor (log2) (MMS19, Q96T76): 4.7
- PRISMA enrichment of interactor (log2) (NUCKS1, Q9H1E3): 5.04
- PRISMA enrichment of interactor (log2) (PTGES3, Q15185): 5.09
- PRISMA enrichment of interactor (log2) (TRRAP, Q9Y4A5): 5.68
